# Source: patent US9181575B2 (priority 2008, dated 2015)
# For at least one compound, name, drawing or mass did not settle the structure.
# Experiments:
# Legionella pneumophila [1] = assay type: cell-based; conditions: after THPS 15 mg/l
# Legionella pneumophila [2] = assay type: cell-based; conditions: BCYE + 0.1% pyruvate
structure (smiles),measurement,setting,value
CC(=O)C(=O)O [pyruvate],"culturable Legionella pneumophila detected, pyruvate in the plating medium","Legionella pneumophila [1]; BCYE + 0.1% pyruvate versus BCYE, dilution in PBS only",increase of culturable Legionella pneumophila detected after biocide treatment
same,"culturable Legionella pneumophila detected, pyruvate in the dilution buffer","Legionella pneumophila [1]; dilution in PBS + 0.5% pyruvate versus PBS, plated on BCYE or BCYE + 0.1% pyruvate","increase of culturable Legionella pneumophila detected on standard medium (BCYE), but also on standard medium supplemented with pyruvate"
same,"culturable Legionella pneumophila count versus standard BCYE, unstressed microorganisms",Legionella pneumophila [2]; absence of biocide,the same result
same,"culturable Legionella pneumophila count versus standard BCYE, stressed microorganisms","Legionella pneumophila [2]; after THPS 10 to 30 mg/L, 60 min, 37 C",much higher microorganism count
